Assay results: PubChem BioAssay AID250 (DTP/NCI, 2004)
The list is a part of this screen's results and no random one: it gathers tests that were run many times, whatever their T/C, doses with no T/C, and many T/C values between a quarter and a half above the control. Other doses and runs of a compound stand elsewhere. T/C is the treated group as % of the vehicle group. Some entries give survivors of the animals treated and no T/C: the source holds a T/C of zero for them, seemingly a mark for toxic or unscored doses. For some of these results: Counts of survivors are from the toxicity check (mostly the fifth day) where no day follows; animals may have died later. Schedules are NCI's codes, read here as Q, the interval in days (D) or hours (H), X, the number of doses. Some doses were run more than once; the results are listed from low to high. Where survival is the endpoint, this PubChem deposit counts one and a half times the control or more as active, and values a quarter to a half above the control carry no call in these data; other NCI protocols may use other cut-offs. Some T/C values are followed by the survivors on the day toxicity was checked, most often the fifth; without a count, all were alive then. Brackets with × stand for listed records that agree.

Key:
[1] = tested on: BDF1 mice, L1210 leukemia sc, survival T/C; experiment: NCI In Vivo Anticancer Drug Screen. Data for tumor model L1210 Leukemia (subcutaneous) in B6D2F1 (BDF1) mice; conditions: T/C endpoint: median survival time, vehicle: water, higher T/C = longer survival
In short: (§1)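 Transplantable tumor-bearing mice; survival or tumor size recorded; result = T/C, treated vs vehicle control.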

[2] = tested on: BDF1 mice, L1210 leukemia sc; experiment: as above; conditions: T/C endpoint: median survival time, vehicle: water, higher T/C = longer survival
In short: as §1

[3] = dose: 300.0 mg/kg/injection, schedule: Q01DX001 (sc), evaluated on day 7
[4] = dose: 300.0 mg/kg/injection, schedule: Q01DX001 (sc), evaluated on day 40
[5] = dose: 300.0 mg/kg/injection, schedule: Q04DX003 (sc), evaluated on day 7
[6] = dose: 500.0 mg/kg/injection, schedule: Q04DX003 (sc), evaluated on day 7
[7] = dose: 500.0 mg/kg/injection, schedule: Q04DX003 (sc), evaluated on day 40

SMILES: O=P1(NCCCl)OCCCN1CCCl (centres undefined)
- T/C ([1]; dose: 65.0 mg/kg/injection, schedule: Q04DX003 (sc), evaluated on day 7): 152, 186, 214 % of control
- T/C ([1]; dose: 65.0 mg/kg/injection, schedule: Q04DX003 (sc), evaluated on day 40): 155, 157, 177 % of control
- T/C ([1]; dose: 65.0 mg/kg/injection, schedule: Q04DX003 (sc), evaluated on day 50): 211 % of control
- T/C ([1]; dose: 108.0 mg/kg/injection, schedule: Q04DX003 (sc), evaluated on day 7): 201, 236, 248 % of control
- T/C ([1]; dose: 108.0 mg/kg/injection, schedule: Q04DX003 (sc), evaluated on day 40): 200 (2×) and 244 % of control
- T/C ([1]; dose: 108.0 mg/kg/injection, schedule: Q04DX003 (sc), evaluated on day 50): 233 % of control
- T/C ([1]; dose: 180.0 mg/kg/injection, schedule: Q01DX001 (sc), evaluated on day 7): 120 % of control
- T/C ([1]; dose: 180.0 mg/kg/injection, schedule: Q01DX001 (sc), evaluated on day 33): 188 % of control
- T/C ([1]; dose: 180.0 mg/kg/injection, schedule: Q01DX001 (sc), evaluated on day 40): 116 and 163 % of control
- T/C ([1]; dose: 180.0 mg/kg/injection, schedule: Q04DX003 (sc), evaluated on day 7): 222, 234, 278 % of control
- T/C ([1]; dose: 180.0 mg/kg/injection, schedule: Q04DX003 (sc), evaluated on day 40): 233, 268, 277 % of control
- T/C ([1]; dose: 180.0 mg/kg/injection, schedule: Q04DX003 (sc), evaluated on day 50): 200 % of control
- T/C [1, 3]: 215 % of control
- T/C ([1]; dose: 300.0 mg/kg/injection, schedule: Q01DX001 (sc), evaluated on day 33): 222 % of control
- T/C [1, 4]: 200 % of control [7 of 8 alive]
- T/C [1, 5]: 201 and 296 % of control
- T/C ([1]; dose: 300.0 mg/kg/injection, schedule: Q04DX003 (sc), evaluated on day 40): 200, 288, 310 % of control
- T/C ([1]; dose: 300.0 mg/kg/injection, schedule: Q04DX003 (sc), evaluated on day 50): 122 % of control
- survivor count ([1]; dose: 500.0 mg/kg/injection, schedule: Q01DX001 (ip)): 3 of 8
- T/C ([1]; dose: 500.0 mg/kg/injection, schedule: Q01DX001 (sc), evaluated on day 7): 164, 226, 265 % of control
- T/C ([1]; dose: 500.0 mg/kg/injection, schedule: Q01DX001 (sc), evaluated on day 33): 277 % of control
- T/C ([1]; dose: 500.0 mg/kg/injection, schedule: Q01DX001 (sc), evaluated on day 40): 166, 221, 230 % of control [6 of 8 alive]
- T/C ([1]; dose: 500.0 mg/kg/injection, schedule: Q01DX001 (sc), evaluated on day 55): 611 % of control [7 of 8 alive]
- T/C [1, 6]: 97 and 164 % of control
- T/C [1, 7]: 161 % of control
- survivor count ([1]; dose: 500.0 mg/kg/injection, schedule: Q04DX003 (sc)): 4 of 8
- survivor count ([1]; dose: 600.0 mg/kg/injection, schedule: Q01DX001 (sc)): 3 of 8
- survivor count ([1]; dose: 625.0 mg/kg/injection, schedule: Q01DX001 (sc)): 5 of 8
- survivor count ([1]; dose: 833.0 mg/kg/injection, schedule: Q01DX001 (ip)): 1 of 8
- T/C ([1]; dose: 833.0 mg/kg/injection, schedule: Q01DX001 (sc), evaluated on day 7): 95 and 179 % of control
- T/C ([1]; dose: 833.0 mg/kg/injection, schedule: Q01DX001 (sc), evaluated on day 40): 110 [6 of 8 alive] and 177 % of control [7 of 8 alive]
- survivor count ([1]; dose: 833.0 mg/kg/injection, schedule: Q01DX001 (sc)): 4 of 8
- survivor count ([1]; dose: 833.0 mg/kg/injection, schedule: Q08DX002 (sc)): 5 of 8
- survivor count ([1]; dose: 1000.0 mg/kg/injection, schedule: Q01DX001 (ip)): 0 of 8
- survivor count ([1]; dose: 1000.0 mg/kg/injection, schedule: Q01DX001 (sc)): 0 of 8 and 1 of 8
- T/C ([2]; dose: 23.0 mg/kg/injection, schedule: Q01DX009 (sc)): 136 % of control
- T/C ([2]; dose: 39.0 mg/kg/injection, schedule: Q04DX003 (sc)): 126 % of control
- T/C ([2]; dose: 65.0 mg/kg/injection, schedule: Q08DX002 (sc)): 131 % of control
- T/C ([2]; dose: 65.0 mg/kg/injection, schedule: Q09DX003 (sc), evaluated on day 7): 144 % of control
- T/C ([2]; dose: 65.0 mg/kg/injection, schedule: Q09DX003 (sc), evaluated on day 50): 144 % of control
- T/C ([2]; dose: 108.0 mg/kg/injection, schedule: Q01DX001 (sc)): 142 % of control
- T/C ([2]; dose: 180.0 mg/kg/injection, schedule: Q01DX009 (sc)): 136 % of control
- T/C [2, 3]: 140 % of control
- T/C [2, 4]: 138 % of control
- T/C [2, 5]: 126 % of control
- T/C [2, 6]: 128 % of control
- T/C [2, 7]: 126 and 127 % of control
- T/C ([2]; dose: 500.0 mg/kg/injection, schedule: Q07DX003 (ip), evaluated on day 7): 143 % of control
- T/C ([2]; dose: 500.0 mg/kg/injection, schedule: Q07DX003 (ip), evaluated on day 60): 131 % of control [7 of 8 alive]
